{
  "source": "patent US20240269194A1",
  "about": "“COMPOSITIONS AND METHODS FOR ISLET CELL TRANSPLANTS” (City of Hope, priority 2021, published 2024)",
  "tested_on": "human islets",
  "experiment": "qRT-PCR of inflammatory, apoptotic and other genes in long-term cultured human islets",
  "assay_type": "cell-based",
  "note": "At least one structure is not confirmed: it was looked up by name or label, or the drawing left a doubt.",
  "data": [
    {"smiles": "CSCCC(NC(=O)C(Cc1c[nH]c2ccccc12)NC(=O)CNC(=O)C(Cc1ccc(O)cc1)NC(=O)C(C)NC(=O)C(CCC(=O)O)NC(=O)C(CCC(=O)O)NC(=O)C(CCC(=O)O)NC(=O)[C@H](CCC(=O)O)NC(=O)[C@H](CCC(=O)O)NC(=O)[C@H](CC(C)C)NC(=O)[C@H](Cc1c[nH]c2ccccc12)NC(=O)[C@@H]1CCCN1C(=O)CNC(=O)[C@@H](N)CCC(=O)O)C(=O)NC(CC(=O)O)C(=O)NC(Cc1ccccc1)C(N)=O", "note": "(stereo in doubt) [gastrin]", "values": [
      {"measurement": "cell death and mRNA levels of genes that promote apoptosis", "result": "decreased cell death and mRNA levels of genes that promote apoptosis"}
    ]}
  ]
}
